# Source: article PMC10366109
# Chains of the proteins cited; added tags and fusions are not shown. Lines headed by an entry give the natural chain unless they say otherwise; changes in a name come on top.
# UniProt E9Q6W4: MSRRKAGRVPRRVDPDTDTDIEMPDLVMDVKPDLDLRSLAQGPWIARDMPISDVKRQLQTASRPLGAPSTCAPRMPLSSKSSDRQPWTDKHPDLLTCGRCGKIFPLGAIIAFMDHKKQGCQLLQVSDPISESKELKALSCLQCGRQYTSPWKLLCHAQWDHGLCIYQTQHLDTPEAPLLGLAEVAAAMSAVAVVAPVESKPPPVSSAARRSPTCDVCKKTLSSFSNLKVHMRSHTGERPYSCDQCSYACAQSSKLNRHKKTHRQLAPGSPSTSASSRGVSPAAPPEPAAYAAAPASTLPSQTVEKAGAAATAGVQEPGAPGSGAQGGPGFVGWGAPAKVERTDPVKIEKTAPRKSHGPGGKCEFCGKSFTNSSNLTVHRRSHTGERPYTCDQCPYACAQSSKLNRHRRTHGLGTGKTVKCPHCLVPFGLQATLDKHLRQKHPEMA
# UniProt Q9Z148: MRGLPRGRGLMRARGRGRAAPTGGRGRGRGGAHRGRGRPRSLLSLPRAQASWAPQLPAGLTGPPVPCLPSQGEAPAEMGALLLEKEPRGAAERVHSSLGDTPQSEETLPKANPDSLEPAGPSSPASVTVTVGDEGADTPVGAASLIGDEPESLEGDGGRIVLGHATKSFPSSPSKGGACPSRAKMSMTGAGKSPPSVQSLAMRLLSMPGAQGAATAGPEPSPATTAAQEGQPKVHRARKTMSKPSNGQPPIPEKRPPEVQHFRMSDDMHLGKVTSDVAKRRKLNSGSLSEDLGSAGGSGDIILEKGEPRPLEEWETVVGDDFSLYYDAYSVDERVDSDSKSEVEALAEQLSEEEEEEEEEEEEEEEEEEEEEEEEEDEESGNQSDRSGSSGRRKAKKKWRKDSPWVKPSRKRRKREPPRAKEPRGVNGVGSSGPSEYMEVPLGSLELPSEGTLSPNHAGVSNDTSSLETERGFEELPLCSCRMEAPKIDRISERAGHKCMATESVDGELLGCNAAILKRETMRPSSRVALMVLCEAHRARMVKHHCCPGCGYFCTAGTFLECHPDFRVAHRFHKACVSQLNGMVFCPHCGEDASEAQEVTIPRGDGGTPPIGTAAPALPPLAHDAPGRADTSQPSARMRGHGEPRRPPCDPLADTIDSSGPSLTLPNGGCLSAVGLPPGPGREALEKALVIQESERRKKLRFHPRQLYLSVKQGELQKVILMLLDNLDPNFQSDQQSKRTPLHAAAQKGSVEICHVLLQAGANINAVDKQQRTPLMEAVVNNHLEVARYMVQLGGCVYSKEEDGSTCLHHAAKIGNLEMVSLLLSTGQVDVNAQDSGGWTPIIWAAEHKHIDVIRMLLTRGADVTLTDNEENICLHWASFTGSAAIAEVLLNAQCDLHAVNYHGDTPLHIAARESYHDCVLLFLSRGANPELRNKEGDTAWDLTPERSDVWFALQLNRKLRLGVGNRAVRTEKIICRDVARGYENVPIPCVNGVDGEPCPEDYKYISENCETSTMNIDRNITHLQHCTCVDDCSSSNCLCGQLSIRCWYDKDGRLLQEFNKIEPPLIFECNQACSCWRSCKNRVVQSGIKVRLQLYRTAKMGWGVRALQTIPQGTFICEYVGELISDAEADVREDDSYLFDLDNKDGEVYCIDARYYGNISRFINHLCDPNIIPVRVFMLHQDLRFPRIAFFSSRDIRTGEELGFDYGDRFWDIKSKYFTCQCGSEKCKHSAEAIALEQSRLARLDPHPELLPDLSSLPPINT
# No constants are given. Whether binding was seen depends on the method and setting. In cells and extracts the contact can be indirect.
# Target: Flag-ZFP296 ΔZF4-6 (mouse) (UniProt E9Q6W4)
# Assay: co-IP; Flag-ZFP296 or its deletion mutants coexpressed with Myc-G9a or Myc-GLP in HEK293T cells; nuclei extracted in 500 mM NaCl, 0.5% IGEPAL CA-630 with Cryonase nuclease, supernatant diluted 4-fold; magnetic beads with anti-Flag (or anti-Myc-tag) antibody, 3 h, 4 °C; western blot with anti-Myc-tag then anti-Flag-tag antibody
substance,measurement,value
Myc-G9a (from UniProt Q9Z148 1-1263) (enzyme),binding,no binding
